Results on 24 molecules are retold here after publication PMC10163288.

Some of the results follow.

B1: il10ra_site1_normal_mot_HHH_b1_04065_000000255_0001_41_56_H_._HHH_b2_07881_0001_0000300032_0000001_0_af2pred_dldesign_0_af2pred (protein)
chain: SSSSDVKAEVDRLIEEARRRKEEGDEVAVATALREAMRLAYEAKDAELFKKVIDEAVRLYESSSS
B2: il10ra_site1_normal_mot_HHH_b1_00456_000000263_0001_1_17_H_._HHH_b2_02667_0001_0000400035_0000001_0_af2pred_0001 (protein)
chain: SSSSDKEEVEEVQRELKRLLEEGDEEELEELLKEAFQLAAKLRDDELAYALLRLFAELRSGSSSS
B3: il10ra_site1_normal_mot_HHH_b2_07579_000000275_0001_1_19_H_._HHH_b2_06527_0001_0000300022_0000002_0 (protein)
chain: SSSSSDEELREVYELIRKALHIDDPEERREVLEEALRIAEENNNAVFVFSIRHALRDVNSSSSSS
B4: il10ra_site1_normal_mot_HHH_b1_02464_000000069_0001_1_19_H_._HHH_b1_02613_0001_0000100010_0000002_0 (protein)
chain: SSSSDLEEEVERLEEELEELVKRNNHEEVSELLMRLARLAFEYNDEEIDRIVIRLARLLGSSSSS
B5: il10ra_site1_normal_mot_HHH_b1_04514_000000156_0001_1_18_H_._HHH_b1_01665_af2_0001_0000200012_0000001_0 (protein)
chain: SSSSDYEEVKKLIKRIVELLRNGNKEEAEKLIEELEELAEELNNPSVEFAARLLEEALKRSSSSS
B6: il10ra_site1_sap_22_mot_HHH_b2_02043_000000010_0001_1_19_H_._HHH_b2_06980_0001_0000100001_0000001_0_0001_af2pred_dldesign_0_af2pred (protein)
chain: SSSSSALEALLDEIERLIEEGKLEEAKELLREATRLAIEANDPELLKRVLELAEKLKEKGSSSSS
B7: il10ra_site1_sap_13_mot_HHH_b1_00169_000000276_0001_1_18_H_._HHH_b2_07690_af2_0001_0000100004_0000001_0_0001 (protein)
chain: SSSSDASRRIYELLREAMELLDEGNPEEAEEVLEEAKELAEEANNLLFLLQIEFILREVTSSSSS
B8: il10ra_site1_normal_mot_HHH_b1_00814_af2_000000078_0001_43_57_H_._HHH_b2_00573_0001_0000100015_0000001_0_af2pred_0001 (protein)
chain: SSSSSSSEEEQVEELLEEARHIDDPKERFRVLREALEVASELGNPELFKLIREFVQEILSSSSSS
B9: il10ra_site1_normal_mot_HHH_b2_03328_af2_000000127_0001_1_19_H_._HHH_b1_08499_0001_0000200023_0000001_0 (protein)
chain: SSSSDVAEEAYELSRRAAELLYQGNPEEARELLEEAEELLKERGDHVILFAVRLLLRILNSSSSS
B10: il10ra_site1_sap_25_mot_2c1a291787c6f40772924d4e9068d803_0001_af2_000000222_0001_34_48_H_._HHH_b2_06714_0001_0000500021_0000001_0_0001 (protein)
chain: SSSSSDALERAWELAKRAAESDDPEEVRELREEVEEIAEEFNDPFVRYIAEAIELMEERLSSSSS
B11: il10ra_site1_normal_mot_HHH_b1_06994_000000193_0001_40_55_H_._HHH_b1_05015_0001_0000100004_0000002_0 (protein)
chain: SSSSSEREEHIEELARTLTELIEQVGSPFLRESLEILLELAEELGDPELERIIRELLEELNSSSS
B12: il10ra_site1_sap_19_mot_HHH_b2_00984_000000042_0001_1_20_H_._HHH_b1_00336_0001_0000600036_0000002_0_0001 (protein)
chain: SSSSSDEELRELARAAERLIRQVDDEKSTEALFLAIELLLERLGDEEIKEILERVEEFLSSSSSS
B13: il10ra_site1_normal_mot_HHH_b1_00992_000000182_0001_23_40_H_._HHH_b2_06940_0001_0000200017_0000003_0 (protein)
chain: SSSSDEEERYVELSFRFARFLFEAGDPEAARRILEAAKQIAERAGNEELLKEIERLEEELKSSSS
B14: il10ra_site1_normal_mot_HHH_b1_01821_000000158_0001_23_39_H_._HHH_b2_03455_af2_0001_0000400012_0000001_0 (protein)
chain: SSSSSDEEVEELEKEVEELLKQGNPEEALHVVFRAIRLAEELGDQELLQRLWELFREIAGSSSSS
B15: il10ra_site1_sap_18_mot_HHH_b1_08477_000000091_0001_40_57_H_._HHH_b1_01666_af2_0001_0000300011_0000001_0_0001 (protein)
chain: SSSSDERERFARLVQKALRLAFQRRDEEALQLLWELMHRFLRHGDPRILEELEELLEELEGSSSS
B16: il10ra_site1_sap_16_mot_HHH_b1_06341_af2_000000167_0001_17_35_H_._HHH_b1_02933_0001_0000200014_0000001_0_0001_af2pred_0001 (protein)
chain: SSSSSTDSTEVLRLIREALHIEDPEEAREVLEEAEEIARELGNEQLERAVETAKRAIERSSSSSS
B17: il10ra_site1_sap_19_mot_HHH_b2_03737_000000101_0001_1_20_H_._HHH_b2_06797_af2_0001_0000100002_0000001_0_0001 (protein)
chain: SSSSDEENKKSLKWAIEAVKRLLELGNHEEAELSARFLKRLIEDAGDEELREELEEVLEEGSSSS
B18: il10ra_site1_normal_mot_a6c796b944619e241e020fd597ddb6da_0001_af2_000000092_0001_15_31_H_._HHH_b2_00387_af2_0001_0000200008_0000001_0 (protein)
chain: SSSSSEEEQRVRALLFFAQDAAKTGNPEAAEITLEVAKEIAEENNDDELKRLIEEVEEEINSSSS
B19: il10ra_site1_normal_mot_HHH_b1_05056_000000217_0001_1_20_H_._HHH_b2_01983_0001_0000100001_0000001_1 (protein)
chain: SSSSSSDLEEEVEELLEEAKEIEDPEEAQRVLAEATHLALELGDEELLQLVWEVVKEHSSSSSSS
B20: il10ra_site1_sap_29_mot_HEEHE_1605_000000211_0001_40_56_H_._2012b86ae8029c2c8ab6d311e818aa61_0001_af2_0001_0000100002_0000001_0_0001_af2pred_0001 (protein)
chain: SSSSDREEELQRLIEELEKLLEEGDEEKLLKLLQELARAAQEANDPEATRVVLRVARELKSSSSS
B21: il10ra_site1_normal_mot_HHH_b2_05323_000000159_0001_1_18_H_._HHH_b2_06454_0001_0000100023_0000001_0 (protein)
chain: SSSSSDEEQELLELSLEAFRLLLRGNPEEARKVLEEAEELARELGNEQVLEIVEDQLQIASSSSS
B22: il10ra_site1_sap_26_mot_HHH_b1_06174_af2_000000107_0001_40_57_H_._527b127d34341fb70d6ba2ed43798e0e_0001_0001_0000400022_0000001_0_0001_af2pred_0001 (protein)
chain: SSSSSEELRELFELIRRLAHLANEDPEEARELLEEAKRLAEELNNDAAKAILEFIEKQLRSSSSS
B23: il10ra_site1_normal_mot_HHH_b1_05370_000000138_0001_1_16_H_._HHH_b1_01093_0001_0000200024_0000002_0 (protein)
chain: SSSSDEEYELAEEAIKEAIELFENGNPEEAERLLREVIEELEERGNEAVVWSLRHLLRVLRSSSS
B24: il10ra_site1_normal_mot_HHH_b1_05056_000000217_0001_1_20_H_._HHH_b2_06957_0001_0000400029_0000002_0 (protein)
chain: SSSSSSDELREEVEELLEEAKHIEDQRELAEVLQEASHLALRAGDAELLQEVWEVVKKLSSSSSS

The target of this assay is il10ra, Q13651. As to the kind of experiment: yeast display titration.
Regarding B1, the “apparent Kd” value was “inactive: no binding seen”.

With B2, the “apparent Kd” value is “inactive: no binding seen”. Under B3 stands “inactive: no binding seen”; under B4, “inactive: no binding seen”; under B5, “inactive: no binding seen”. As to B6, the “apparent Kd” value was “inactive: no binding seen”. Turning to B7, the “apparent Kd” value is “inactive: no binding seen”. Under B8 stands “inactive: no binding seen”; under B9, “inactive: no binding seen”. With B10, the “apparent Kd” value was “inactive: no binding seen”.

With B11, the “apparent Kd” value was “inactive: no binding seen”. In the case of B12, the “apparent Kd” value was “inactive: no binding seen”. B13: the “apparent Kd” value was “inactive: no binding seen”. Consider B14, for which the “apparent Kd” value is “inactive: no binding seen”.

Consider B15, for which the “apparent Kd” value was “inactive: no binding seen”. Take B16: the “apparent Kd” value was “inactive: no binding seen”. Regarding B17, the “apparent Kd” value is “inactive: no binding seen”. On to B18, for which the “apparent Kd” value is “inactive: no binding seen”. For the molecule B19, the “apparent Kd” value is “inactive: no binding seen”. Take B20: the “apparent Kd” value was “inactive: no binding seen”. For B21, the “apparent Kd” value is “inactive: no binding seen”. With B22, the “apparent Kd” value was “inactive: no binding seen”. Take B23: the “apparent Kd” value was “inactive: no binding seen”. For B24, the “apparent Kd” value was “inactive: no binding seen”.
